In publication PMC11001723 one finds binding data, which are given here for one substance.

Amino acid sequences for entries named in this document (tags omitted).
UniProt P28741: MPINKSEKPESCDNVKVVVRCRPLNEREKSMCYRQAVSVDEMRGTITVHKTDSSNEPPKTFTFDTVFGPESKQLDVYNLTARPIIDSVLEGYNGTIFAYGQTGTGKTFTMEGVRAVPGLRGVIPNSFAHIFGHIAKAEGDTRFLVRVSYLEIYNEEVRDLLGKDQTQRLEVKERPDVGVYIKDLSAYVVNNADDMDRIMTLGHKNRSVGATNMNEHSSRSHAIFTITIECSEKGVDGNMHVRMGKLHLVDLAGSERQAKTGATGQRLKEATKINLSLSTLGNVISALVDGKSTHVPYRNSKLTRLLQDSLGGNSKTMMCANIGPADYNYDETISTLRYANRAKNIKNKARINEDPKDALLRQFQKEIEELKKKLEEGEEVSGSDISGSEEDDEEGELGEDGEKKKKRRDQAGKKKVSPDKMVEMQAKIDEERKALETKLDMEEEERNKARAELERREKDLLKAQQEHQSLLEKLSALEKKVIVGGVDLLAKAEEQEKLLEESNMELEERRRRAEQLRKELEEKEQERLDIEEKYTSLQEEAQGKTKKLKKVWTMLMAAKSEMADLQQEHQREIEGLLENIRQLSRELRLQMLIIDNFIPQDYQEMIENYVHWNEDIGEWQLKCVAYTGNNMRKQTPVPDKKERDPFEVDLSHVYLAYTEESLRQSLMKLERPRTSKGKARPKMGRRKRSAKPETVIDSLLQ
UniProt E9Q7G0: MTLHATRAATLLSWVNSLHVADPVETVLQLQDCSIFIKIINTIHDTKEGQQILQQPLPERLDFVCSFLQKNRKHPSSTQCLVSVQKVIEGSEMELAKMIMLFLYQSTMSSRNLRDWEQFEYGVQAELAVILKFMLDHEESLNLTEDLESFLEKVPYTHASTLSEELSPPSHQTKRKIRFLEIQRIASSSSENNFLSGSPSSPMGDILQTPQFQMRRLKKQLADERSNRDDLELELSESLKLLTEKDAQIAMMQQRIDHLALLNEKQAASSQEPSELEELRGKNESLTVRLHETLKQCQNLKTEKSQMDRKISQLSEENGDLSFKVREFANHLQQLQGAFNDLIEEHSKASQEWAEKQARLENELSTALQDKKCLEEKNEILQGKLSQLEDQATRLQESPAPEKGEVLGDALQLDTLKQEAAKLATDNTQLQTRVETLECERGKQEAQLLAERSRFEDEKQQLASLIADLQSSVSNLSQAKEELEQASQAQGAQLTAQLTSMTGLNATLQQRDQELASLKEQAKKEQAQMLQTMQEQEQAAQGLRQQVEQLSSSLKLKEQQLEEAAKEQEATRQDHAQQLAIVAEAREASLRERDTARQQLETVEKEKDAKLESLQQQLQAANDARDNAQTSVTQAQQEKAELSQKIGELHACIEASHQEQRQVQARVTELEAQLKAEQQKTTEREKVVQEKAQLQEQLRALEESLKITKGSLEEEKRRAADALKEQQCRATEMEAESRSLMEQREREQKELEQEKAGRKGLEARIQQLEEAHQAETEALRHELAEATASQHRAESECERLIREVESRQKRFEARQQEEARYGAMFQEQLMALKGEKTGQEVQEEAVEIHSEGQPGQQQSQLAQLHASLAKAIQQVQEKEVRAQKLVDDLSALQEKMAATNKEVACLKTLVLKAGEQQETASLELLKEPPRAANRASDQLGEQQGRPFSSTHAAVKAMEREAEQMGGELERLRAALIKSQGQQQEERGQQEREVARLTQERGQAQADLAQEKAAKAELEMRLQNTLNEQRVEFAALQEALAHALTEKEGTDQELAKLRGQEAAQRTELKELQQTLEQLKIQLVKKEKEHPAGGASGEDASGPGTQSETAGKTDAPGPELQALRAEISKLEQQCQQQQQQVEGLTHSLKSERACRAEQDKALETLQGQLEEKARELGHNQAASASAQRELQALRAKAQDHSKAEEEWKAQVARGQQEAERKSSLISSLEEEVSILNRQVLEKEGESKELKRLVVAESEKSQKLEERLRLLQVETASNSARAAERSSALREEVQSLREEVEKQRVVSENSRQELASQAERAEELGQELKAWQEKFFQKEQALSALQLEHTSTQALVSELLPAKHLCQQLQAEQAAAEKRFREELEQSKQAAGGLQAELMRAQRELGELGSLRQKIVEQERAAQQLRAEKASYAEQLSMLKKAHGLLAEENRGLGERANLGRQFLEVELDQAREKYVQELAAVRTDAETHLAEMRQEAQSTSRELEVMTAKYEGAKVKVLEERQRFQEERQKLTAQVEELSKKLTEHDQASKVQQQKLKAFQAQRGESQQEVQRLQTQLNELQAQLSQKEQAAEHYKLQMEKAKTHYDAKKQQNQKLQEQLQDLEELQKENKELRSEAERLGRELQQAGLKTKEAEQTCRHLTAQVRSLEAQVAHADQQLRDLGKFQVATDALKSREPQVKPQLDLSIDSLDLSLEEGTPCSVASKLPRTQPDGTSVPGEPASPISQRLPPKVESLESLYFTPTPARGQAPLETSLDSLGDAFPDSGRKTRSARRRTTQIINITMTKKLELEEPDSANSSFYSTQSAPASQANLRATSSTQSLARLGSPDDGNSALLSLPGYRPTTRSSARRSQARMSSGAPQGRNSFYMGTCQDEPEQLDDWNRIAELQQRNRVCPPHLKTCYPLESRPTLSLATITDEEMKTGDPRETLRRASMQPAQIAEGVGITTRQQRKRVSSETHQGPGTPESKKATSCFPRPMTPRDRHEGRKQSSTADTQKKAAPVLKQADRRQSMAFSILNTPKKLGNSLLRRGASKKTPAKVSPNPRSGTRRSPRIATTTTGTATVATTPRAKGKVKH

No constants are given. Whether binding was seen depends on the method and setting. Binding seen in cells or lysates may run through a third protein. Some results given as binding are weak or reduced against the parent protein; the word gives no strength.

The assay has as its target Kinesin family member 3A (mouse (endogenous in ovary)) (UniProt P28741). The assay can be described thus: co-IP; rabbit anti-KIF3A antibody on Dynabeads Protein G, incubated with lysate of 6 mouse ovaries for 6 h at 4 °C, washed three times, eluted; partners detected by western blot.

Regarding “nuclear mitotic apparatus protein (from UniProt E9Q7G0 1-2094)”, the binding result was “binds”.
